Experimental data: PubChem BioAssay AID686943 (Drosophila RNAi Screening Center, 2013)
In all, the deposit lists about 23,000 reagents; shown is an unselected part of those that have a named target and a result. 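Extra replicates exist only for a retested subset of genes; insulin dose and duration not given; both raised and lowered dpERK matter.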 A plus sign joins genes that one reagent is predicted to hit. Not all columns of the deposit are shown. Not stated in the record: the amount of reagent, the time to read-out.

Assay: 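Fly genes whose loss alters ERK activation after insulin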 (primary screen)
System: Drosophila S2R+ haemocyte-like cells expressing YFP-tagged ERK (Rolled)
Reagents: long dsRNA against Drosophila genes
Treatment: insulin stimulation versus unstimulated cells; dose and duration not given
Detection: 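Antibody staining for doubly phosphorylated ERK divided by ERK-YFP signal, as plate z-scores, in insulin-treated and untreated cells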
Direction: replicate 1, z-score of dpERK with insulin: higher = more active ERK per ERK-YFP after insulin

gene | amplicon | replicate 1, z-score of dpERK with insulin
CG7094 | DRSC03005 | 0.42
Or85a (Odorant receptor 85a) | DRSC16764 | 0
CG4704 | DRSC15628 | -0.3
asl (asterless) | DRSC12319 | -1.07
CG34033 | DRSC05190 | -0.2
Brd8 (Bromodomain containing 8) | DRSC14866 | -0.23
porin | DRSC03594 | -0.23
CG10650 | DRSC02085 | 0.21
Efa6 (Exchange factor for Arf 6) | DRSC13569 | 0.19
Efa6 (Exchange factor for Arf 6) | DRSC15312 | -0.41
Efa6 (Exchange factor for Arf 6) | DRSC16141 | -0.15
CG8036 | DRSC16366 | -0.25
Rift (Riboflavin transporter) | DRSC14330 | -0.05
CG5614 | DRSC15845 | 1.16
sti (sticky) | DRSC09739 | -0.54
sti (sticky) | DRSC09740 | -0.33
CG42818 | DRSC01963 | 0.76

A stretch of the results above, for reference:
gene | amplicon | replicate 1, z-score of dpERK with insulin
Or85a (Odorant receptor 85a) | DRSC16764 | 0
CG4704 | DRSC15628 | -0.3
asl (asterless) | DRSC12319 | -1.07
CG34033 | DRSC05190 | -0.2

Next entries:
gene | amplicon | replicate 1, z-score of dpERK with insulin
CG8560 | DRSC10994 | -0.32
CG7840 | DRSC03075 | 0.45
CG31493 | DRSC12583 | -0.54
Art9 (Arginine methyltransferase 9) | DRSC16584 | 3.86
CG15548 | DRSC15086 | -0.08
numb | DRSC03584 | 0.17
ND-18 (NADH dehydrogenase (ubiquinone) 18 kDa subunit) | DRSC19441 | 0.21
Raf (Raf oncogene) | DRSC18821 | -1.17
CG14000 + bchs | DRSC02333 | -0.06
CG34126 | DRSC02726 | 0.01
CG34126 | DRSC22079 | -1.84
CG14507 | DRSC14859 | -0.28
Dlip2 (Dorsal interacting protein 2) | DRSC12346 | 0.78
CG13075 | DRSC09958 | 0.47
AlaRS (Alanyl-tRNA synthetase) | DRSC01851 | -0.58
fred (friend of echinoid) | DRSC00349 | 0.25
fred (friend of echinoid) | DRSC00599 | -0.27
fred (friend of echinoid) | DRSC00601 | -0.58
fred (friend of echinoid) | DRSC00602 | -0.19
fred (friend of echinoid) | DRSC21906 | -0.44
ste24c + CR30461 (retired record) | DRSC05639 | -0.06
ste24c + CR30461 (retired record) | DRSC07316 | -0.28
